According to patent CN117946264A:
No constants are given. Whether binding was seen depends on the method and setting. Some results given as binding are weak or reduced against the parent protein; the word gives no strength.

Sequences of proteins named here, by UniProt entry; tags and fusion partners are left off. A change or cut given only in a name is not applied to a line headed by its entry.
UniProt P10636: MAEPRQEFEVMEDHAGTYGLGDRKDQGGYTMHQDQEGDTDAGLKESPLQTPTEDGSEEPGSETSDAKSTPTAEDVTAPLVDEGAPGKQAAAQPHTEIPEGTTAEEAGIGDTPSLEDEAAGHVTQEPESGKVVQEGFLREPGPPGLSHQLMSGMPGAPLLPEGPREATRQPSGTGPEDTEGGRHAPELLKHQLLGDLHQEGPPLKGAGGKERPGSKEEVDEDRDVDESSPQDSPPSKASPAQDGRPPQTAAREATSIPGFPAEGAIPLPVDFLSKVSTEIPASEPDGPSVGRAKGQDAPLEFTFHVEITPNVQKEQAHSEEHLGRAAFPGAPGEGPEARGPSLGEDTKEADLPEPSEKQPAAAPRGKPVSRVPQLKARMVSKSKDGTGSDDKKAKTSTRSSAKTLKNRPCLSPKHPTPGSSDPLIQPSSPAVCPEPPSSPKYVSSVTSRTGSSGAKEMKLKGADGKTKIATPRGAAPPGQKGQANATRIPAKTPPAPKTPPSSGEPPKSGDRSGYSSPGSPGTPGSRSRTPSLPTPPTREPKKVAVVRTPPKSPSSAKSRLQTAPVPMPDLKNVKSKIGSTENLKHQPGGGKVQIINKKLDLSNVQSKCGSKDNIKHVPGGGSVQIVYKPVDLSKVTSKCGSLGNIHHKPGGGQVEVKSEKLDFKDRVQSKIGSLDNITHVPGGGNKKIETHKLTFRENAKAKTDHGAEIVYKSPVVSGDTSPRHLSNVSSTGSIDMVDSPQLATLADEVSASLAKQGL

Molecular target: 后段Tau蛋白(总Tau蛋白第308~441位氨基酸) (human) (UniProt P10636)
Test: indirect ELISA, hybridoma supernatant on coated rear Tau fragment

binding: binds
B1: 后段Tau蛋白单克隆抗体(冻存编号为37.1) (antibody, V domains shown)
VH: EVRLVESGGGLVQPGGSLRLSCATSGFTFSDFYMEWVRQSPGKRLEWIAASRDKTNDYTTEYNTSVKGRFIVSRDTSQSILYLQMNALRAEDTAIYYCARDAWFAYWGQGTLVTVSA
VL: DIVITQDELSNPVTSGESVSISCRSSKSLLYKDGKTYLNWFLQRPGQSPQLLIYLMSTRASGVSDRFSGSGSGTDFTLEISRVKAEDVGVYYCQQLLEYPVTFGAGTKLELK
